Some of the results follow. Further columns of the screen follow, without active or inactive calls. Most of these compounds were active or inconclusive in the main read-out, so they are no random draw. Words in brackets tell the shape of the fitted curve; partial curves, single points and poor fits give uncertain potencies.
Experiment: qHTS Assay to Find Inhibitors of Chronic Active B-Cell Receptor Signaling
Settings: ABC-DLBCL IkBa-CBG/CBR reporter, luminescence ratio (green luciferase fused to IkBa over red control in TMD8 lymphoma cells), 4 h
Procedure, shortened: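 TMD8 ABC-DLBCL cells carrying doxycycline-inducible green luciferase fused to IkappaBalpha plus unfused red luciferase were exposed to compounds (up to 46 uM) for 4 hrs at 37C. Activity came from the overlap-corrected green/red luminescence ratio.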

[1] = measured here: CBR red luminescence, cell number
[2] = measured here: IkBa-CBG green luminescence

## COc1ccc(N(CC(=O)N/N=C/c2ccccc2F)S(=O)(=O)c2ccccc2)cc1
[1]
  AC50: 11.2 µM [falling, single point]

## COc1ccc(NC(=O)Nc2cccc3ccccc23)cc1S(N)(=O)=O
[1]
  AC50: 2 µM [falling, full curve]

## COC(=O)C1CCN(C(=O)/C=C/c2ccc3c(c2)OCO3)CC1
[1]
  AC50: 1.12 µM [falling, full curve]

## Nc1cc(N)nc(SCCOc2ccccc2F)n1
[1]
  AC50: 2.31 µM [rising, partial curve, poor fit]

## O=C(COC(=O)Cc1ccccc1F)Nc1cc(S(=O)(=O)N2CCOCC2)ccc1N1CCCC1
[1]
  AC50: 20.6 µM [rising, partial curve, poor fit]

## Cc1ccc(CNC(=O)Cc2ccc(-c3ccccc3)cc2)cc1
[1]
  AC50: 2.82 µM [rising, full curve]

## Nc1cc(Cl)ccc1Oc1ccc2ccccc2c1
[1]
  AC50: 1.16 µM [rising, full curve]

## CCCC(=O)OC/C(O)=C(\C#N)c1nc2ccccc2[nH]1
[1]
  AC50: 7.08 µM [falling, partial curve, poor fit]

## Cc1ccccc1NC(=O)C1(NC(=O)c2cccc(N3C(=O)CSC3c3ccccc3)c2)CCCCC1 (configuration not stated)
[1]
  AC50: 11.2 µM [falling, partial curve, poor fit]

## O=C1CC(c2ccc(OCCCCCOc3ccc(C4CC(=O)NC4=O)cc3)cc2)C(=O)N1 (configuration not stated)
[1]
  AC50: 11.2 µM [falling, partial curve, poor fit]

## Fc1ccccc1OCCSc1nnnn1-c1ccccc1
[1]
  AC50: 1.64 µM [rising, partial curve, poor fit]

## CCN(CC)S(=O)(=O)c1cccc(C(=O)OCC(=O)NCc2ccccc2OC)c1
[1]
  AC50: 0.058 µM [rising, full curve, poor fit]

## O=[N+]([O-])c1ccc(Nc2ccc3ccccc3c2)nc1
[1]
  AC50: 0.184 µM [rising, full curve]

## CCCCOc1ccc(C(=O)NCC(=O)NCC(c2ccc(OC)cc2)N2CCOCC2)cc1 (configuration not stated)
[1]
  AC50: 7.31 µM [rising, partial curve]

## CN1CCC(N2CCN(c3cccc(C(F)(F)F)c3)CC2)CC1
[1]
  AC50: 20.6 µM [rising, single point]

## Cc1ccc(CCNC(=O)c2nnn(-c3cc(C)cc(C)c3)c2N)cc1
[1]
  AC50: 29.1 µM [falling, single point]

## Cc1ccccc1NC(=O)/C=C/c1ccc([N+](=O)[O-])s1
[1]
  AC50: 6.51 µM [falling, partial curve]

## CCOC(=O)Cc1csc(NS(=O)(=O)c2ccc3c4c(cccc24)C(=O)N3CC)n1
[1]
  AC50: 35.5 µM [rising, single point]

## Cc1csc(SCC(=O)Nc2sccc2C#N)n1
[1]
  AC50: 7.08 µM [falling, partial curve]

## COc1ccc(-c2cc(C(=O)NCCc3ccc(S(N)(=O)=O)cc3)c3ccccc3n2)cc1
[1]
  AC50: 7.08 µM [rising, partial curve, poor fit]

## COC(=O)c1cc(NC(=O)CSC2=NCCS2)cc(C(=O)OC)c1
[1]
  AC50: 15.8 µM [falling, single point]

## CCOc1cccc(C(=O)NC(c2ccccc2)C(C)C)c1 (configuration not stated)
[1]
  AC50: 6.31 µM [rising, single point]

## Cc1ccc2oc(-c3ccccc3)nc2c1
[1]
  AC50: 29.1 µM [rising, single point]

## Cc1c(NC(=O)c2noc(C(C)C)c2[N+](=O)[O-])c(=O)n(-c2ccccc2)n1C
[1]
  AC50: 25.9 µM [falling, single point]
[2]
  AC50: 20.6 µM [rising, partial curve, poor fit]

## CC(=O)Nc1ccc(Nc2ncnc3c2cnn3-c2cccc(C)c2)cc1
[1]
  AC50: 5.17 µM [falling, partial curve, poor fit]

## CC1CN(C(=O)Nc2cccc(Cl)c2)C2(CCCCCC2)O1 (configuration not stated)
[1]
  AC50: 12.6 µM [rising, partial curve, poor fit]

## C=C(C)CN(CC)C(=O)c1ccc(OC2CCN(S(=O)(=O)N(C)C)CC2)cc1
[1]
  AC50: 12.6 µM [rising, partial curve, poor fit]

## COc1ccc(Nc2nc(Cl)nc(Nc3ccc(OC)cc3OC)n2)c(OC)c1
[1]
  AC50: 0.631 µM [falling, partial curve, poor fit]

## CCC1Nc2ncnc(N3CCc4ccccc4C3)c2N(Cc2ccc(Cl)cc2)C1=O (configuration not stated)
[1]
  AC50: 29.1 µM [falling, single point]

## CCOC(=O)C1(CCOc2ccccc2)CCN(Cc2cnc(C)s2)CC1
[1]
  AC50: 5.62 µM [rising, partial curve]

## COc1ccc(CNC(=O)CN2N=C(c3ccc(Cl)cc3)CCC2=O)cc1
[1]
  AC50: 2.51 µM [falling, full curve, poor fit]

## N#CCN1C(=S)N=C(Nc2cccc(Cl)c2)C12CCCCC2
[1]
  AC50: 3.98 µM [rising, full curve, poor fit]
[2]
  AC50: 4.47 µM [falling, partial curve, poor fit]

## COc1ccc(C(=O)Nc2nc(C)c3cc4c(cc3n2)OCO4)cc1
[1]
  AC50: 4.61 µM [falling, full curve, poor fit]

## CCc1ccc2c(CC(=O)Nc3nnc(C4CC4)s3)coc2c1
[1]
  AC50: 17.8 µM [rising, single point]

## COc1cccc2sc(N(CCCN(C)C)C(=O)c3ccc(S(=O)(=O)N4CCc5ccccc5C4)cc3)nc12
[1]
  AC50: 35.5 µM [falling, single point]

## Nc1c(C(=O)N/N=C/c2cccnc2)cnn1-c1ccccc1
[1]
  AC50: 2.31 µM [falling, single point]

## CC(=NC1CCCC1)c1c(C)[nH]n(-c2nc3ccccc3s2)c1=O
[1]
  AC50: 0.355 µM [rising, full curve, poor fit]

## c1ccc(CC2CCN(C3=Nc4cccc5cccc3c45)CC2)cc1
[1]
  AC50: 2 µM [rising, full curve, poor fit]

## COc1cc(CNc2ccc(O)cc2)cc(Br)c1OCc1ccccc1
[1]
  AC50: 1.41 µM [rising, partial curve, poor fit]

## COc1ccc(-c2cc(C(=O)NN)[nH]n2)cc1OC
[1]
  AC50: 14.1 µM [rising, single point]
[2]
  AC50: 17.8 µM [falling, partial curve]

## Cc1cc(C)cc(OCC(=O)O/N=C(\N)c2ccccc2Cl)c1
[1]
  AC50: 1.12 µM [rising, full curve, poor fit]

## CCCCCC(=O)N/N=C(\C)c1ccc(N2CCCCC2)cc1
[1]
  AC50: 4.11 µM [rising, single point]

## Cc1ccc(C)c(NC(=O)c2ccccc2NS(=O)(=O)c2cc([N+](=O)[O-])ccc2C)c1
[1]
  AC50: 4.11 µM [falling, full curve]

## CCCCOC(=O)c1ccc(NC(=O)c2ocnc2C)cc1
[1]
  AC50: 5.62 µM [rising, full curve]

## COc1ccc(NC(=O)CN(C)CC(=O)Nc2cccc(S(=O)(=O)N(C)c3ccccc3)c2)cc1
[1]
  AC50: 35.5 µM [falling, single point]

## COC(=O)c1ccc(-n2nnnc2SCC(=O)Nc2ccccc2OC)cc1
[1]
  AC50: 20 µM [falling, partial curve]

## Cc1ccc(OCc2ccc(C(=O)NN)o2)cc1C
[1]
  AC50: 7.08 µM [falling, partial curve]

## CCCCCc1nc2c(=O)[nH]c3ccccc3c2o1
[1]
  AC50: 0.251 µM [rising, full curve, poor fit]

## COc1cc(OC)cc(C(=O)N[C@H](C(=O)Nc2nc(-c3ccc(OC)c(OC)c3)cs2)C(C)C)c1
[2]
  AC50: 0.708 µM [falling, partial curve, poor fit]

## CCN1CCCC1CNC(=O)C(=O)Nc1ccccc1 (configuration not stated)
[1]
  AC50: 8.91 µM [falling, partial curve, poor fit]

## O=C(CSc1nnc(-c2ccncc2)n1-c1ccc(Cl)cc1)N1CCOCC1
[1]
  AC50: 16.4 µM [rising, partial curve]

## COc1cccc(NC(=O)C(=O)NCc2ccncc2)c1
[1]
  AC50: 8.91 µM [falling, partial curve]

## COc1ccc(-c2cn3ccsc3n2)cc1
[1]
  AC50: 0.2 µM [rising, full curve, poor fit]

## COc1cc(NC(=O)Cn2nc(-c3ccc(F)cc3)ccc2=O)ccc1-n1cnnn1
[1]
  AC50: 35.5 µM [rising, single point]

## COC(=O)c1nnc(-c2ccccc2)nc1OC
[1]
  AC50: 20.6 µM [falling, single point]

## CCOC(=O)c1sc(NC(=O)c2sc(C)nc2C)nc1C
[1]
  AC50: 0.398 µM [falling, full curve]

## O=C(Nc1ccc(OC(F)F)c(Cl)c1)C(c1ccccc1)c1ccccc1
[1]
  AC50: 16.4 µM [falling, single point]
[2]
  AC50: 16.4 µM [rising, single point]

## COc1cc(/C=C2/C(=O)NN(c3ccccc3)C2=O)cc(Br)c1O
[1]
  AC50: 22.4 µM [falling, single point]

## CSc1ccccc1OCc1cc(C(=O)N(C)CCc2c(C)n[nH]c2C)no1
[1]
  AC50: 0.1 µM [falling, full curve, poor fit]

## NC(=O)c1ccc2nc(-c3ccccc3)c(-c3ccccc3)nc2c1
[1]
  AC50: 15.8 µM [falling, single point]

## COc1ccccc1-c1cn[nH]c1-c1ccc(OCc2ccc(F)cc2)cc1O
[2]
  AC50: 35.5 µM [rising, partial curve, poor fit]

## CCN(CC)S(=O)(=O)c1cccc(NC(=O)CCNC(=O)c2ccc([N+](=O)[O-])cc2)c1
[1]
  AC50: 5.62 µM [rising, single point]

## CCN(CC)C(=O)CSc1nnc(-n2nc(C)cc2C)c2ccccc12
[1]
  AC50: 17.8 µM [falling, single point]
